Results are given in words; binding and its absence hold for the method and conditions named. Some binding calls cover weakened binding; strength is not graded here.
Assays:
[1] = target: CD9 on cancer cell lines (2774, UO31, AsPC-1, MIA PaCa) (human) (UniProt P21926); assay: FACS
[2] = target: CD9-ECL2 mutant M4 (human, with rat residues) (UniProt P21926); assay: ELISA, antibody coated
[3] = target: CD9 on cancer cell lines (2774, UO31, AsPC-1, MIA PaCa) (human) (UniProt P21926); assay: FACS with whole IgG supernatant on ovarian cancer cell line

By UniProt entry, the sequences of proteins in these tests, tags left out. Where a name states a change or a piece, a line headed by the entry shows the natural chain unless it says otherwise. Residues count along the entry.
UniProt P21926, residues 2-228: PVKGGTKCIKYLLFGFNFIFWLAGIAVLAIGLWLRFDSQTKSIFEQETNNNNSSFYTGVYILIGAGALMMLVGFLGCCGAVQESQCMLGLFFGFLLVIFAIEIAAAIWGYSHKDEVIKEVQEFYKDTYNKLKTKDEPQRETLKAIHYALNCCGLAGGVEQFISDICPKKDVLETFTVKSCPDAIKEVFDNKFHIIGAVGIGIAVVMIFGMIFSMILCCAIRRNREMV

binding [1]: binds | binding [2]: binds | binding [3]: binds
B1: 10E4 whole IgG (antibody, V domains shown)
VH: MAQVQLVQSGGGLVQPGRSLRLSCAASGFTFDDFAMHWVRQAPGKGLEWVAGISWNSGDIRYADSVRGRFTISRDNAKNSLFLQMNSLRAEDTAVYYCARSPVGTTYFDYWGQGALITVSS
VL: DIQMTQSPSSLSASVGDRVTITCRASQGISSYLAWYQQKPGKAPKLLIYAASTLQSEVPSRFSGSGSGTDFTLTISSLQPEDFATYYCQQLNIFPLTFGGTKVDIKR

Source: patent US20110195027A1
